# Patent US6426205
# These are yes or no findings as the source states them, for the method shown. For some of these results: Binding seen in cells or lysates may run through a third protein. Some entries that bind do so weakly or less than the wild type. For some of these results: Where a sequence is shown, tags or fusion partners need not be part of it.
# T1: MYC-tagged Cdc53 (Saccharomyces cerevisiae) (UniProt Q12018)
# T1 sequence: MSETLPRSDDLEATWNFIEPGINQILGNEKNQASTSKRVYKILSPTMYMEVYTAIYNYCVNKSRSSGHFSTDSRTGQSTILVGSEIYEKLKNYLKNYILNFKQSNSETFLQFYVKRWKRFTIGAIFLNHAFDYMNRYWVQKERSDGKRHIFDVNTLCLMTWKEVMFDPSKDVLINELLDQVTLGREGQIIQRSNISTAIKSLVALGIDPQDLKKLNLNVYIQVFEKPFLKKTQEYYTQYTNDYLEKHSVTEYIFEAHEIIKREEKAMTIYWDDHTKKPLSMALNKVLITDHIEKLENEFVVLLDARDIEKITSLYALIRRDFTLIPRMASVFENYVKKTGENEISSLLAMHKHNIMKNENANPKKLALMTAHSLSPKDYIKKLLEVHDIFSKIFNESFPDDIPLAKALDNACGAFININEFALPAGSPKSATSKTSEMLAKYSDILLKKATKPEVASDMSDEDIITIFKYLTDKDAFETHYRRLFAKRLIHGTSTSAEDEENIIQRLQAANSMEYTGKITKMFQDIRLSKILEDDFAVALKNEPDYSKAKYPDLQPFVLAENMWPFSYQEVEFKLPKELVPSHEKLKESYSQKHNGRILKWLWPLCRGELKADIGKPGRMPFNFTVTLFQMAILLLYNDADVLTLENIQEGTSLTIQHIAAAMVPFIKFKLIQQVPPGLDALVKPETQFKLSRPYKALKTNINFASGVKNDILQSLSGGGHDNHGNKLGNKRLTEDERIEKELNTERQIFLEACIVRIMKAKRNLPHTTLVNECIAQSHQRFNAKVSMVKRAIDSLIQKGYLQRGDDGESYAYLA
# Columns and labels:
# Skp1 (budding yeast) [1] = experiment: anti-HA immunoprecipitation from yeast lysate, immunoblot
# Skp1 (budding yeast) [2] = experiment: co-immunoprecipitation from yeast lysates (discussion of Example 1)
# Skp1 (budding yeast) [3] = experiment: anti-MYC immunoprecipitation from yeast lysate, immunoblot
# [4] = target: Gal4^AD-Skp1 isolates (budding yeast); experiment: yeast two-hybrid screen of Gal4^AD genomic and cDNA libraries
# [5] = target: T1, MYC-tagged Cdc53 (Saccharomyces cerevisiae); experiment: deletion analysis by co-immunoprecipitation (discussion of Example 1)
binder,measurement,setting,value
"HA-tagged Met30 (protein, not shown: small tags and cut ends) RMMSFEDKDKDDLDNSNSNNSSEMTDTAMMPPLKRLLITGSSDDLAQGSSGKKKMTMATRSPSSSPDLATNDSGTRVQPLPEYNFTKFCYRHNPDIQFSPTHTACYKQDLKRTQEINANIAKLPLQEQSDIHHIISKYSNSNDKIRKLILDGILSTSCFPQLSYISSLVTHMIKIDFISILPQELSLKILSYLDCQSLCNATRVCRKWQKLADDDRVWYHMCEQHIDRKCPNCGWGLPLLHMKRARIQQNSTGSSSNADIQTQTTRPWKVIYRERFKVESNWRKGHCRIQEFKGHMDGVLTLQFNYRLLFTGSYDSTIGIWDLFTGKLIRRLSGHSDGVKTLYFDDRKLITGSLDKTIRVWNYITGECISTYRGHSDSVLSVDSYQKVIVSGSADKTVKVWHVESRTCYTLRGHTEWVNCVKLHPKSFSCFSCSDDTTIRMWDIRTNSCLKVFRGHVGQVQKIIPLTIKDVENLATDNTSDGSSPQDDPTMTDGADESDTPSNEQETVLDENIPYPTHLLSCGLDNTIKLWDVKTGKCIRTQFGHVEGVWDIAADNFRIISGSHDGSIKVWDLQSGKCMHTFNGRRLQRETQHTQTQSLGDKVAPIACVCIGDSECFSGDEFGCVKMYKFDLND",binding,Skp1 (budding yeast) [1],binds
same,binding,Skp1 (budding yeast) [2],binds
"HA-tagged version of Grr1 (protein, not shown: small tags and cut ends) LQDLSRYSRQFINNVLSNPSNQNICTSVTRRSPVFALNMLPSEILHLILDKLNQKYDIVKFLTVSKLWAEIIVKILYYRPHINKKSQLDLFLRTMKLTSEETVFNYRLMIKRLNFSFVGDYMHDTELNYFVGCKNLERLTLVFCKHITSVPISAVLRGCKFLQSVDITGIRDVSDDVFDTLATYCPRVQGFYVPQARNVTFDSLRNFIVHSPMLKRIKITANNNMNDELVELLANKCPLLVEVDITLSPNVTDSSLLKLLTRLVQLREFRITHNTNITDNLFQELSKVVDDMPSLRLIDLSGCENITDKTIESIVNLAPKLRNVFLGKCSRITDASLFQLSKLGKNLQTVHFGHCFNITDNGVRALFHSCTRIQYVDFACCTNLTNRTLYELADLPKLKRIGLVKCTQMTDEGLLNMVSLRGRNDTLERVHLSYCSNLTIYPIYELLMSCPRLSHLSLTAVPSFLRPDITMYCRPAPSDFSENQRQIFCVFSGKGVHKLRHYLVNLTSPAFGPHVDVNDVLTKYIRSKNLIFNGETLEDALRRIITDLNQDSAAIIAATGLNQINGLNNDFLFQNINFERIDEVFSWYLNTFDGIRMSSEEVNSLLLQVNKTFCEDPFSDVDDDQDYVVAPGVNREINSEMCHIVRKFHELNDHIDDFEVNVASLVRVQFQFTGFLLHEMTQTYMQMIELNRQICLVQKTVQESGNIDYQKGLLIWRLLFIDKFIMVVQKYKLSTVVLRLYLKDNITLLTRQRELLIAHQRSAWNNNNDNDANRNANNIVNIVSDAGANDTSNNETNNGNDDNETENPNFWRQFGNRMQISPDQMRNLQMGLRNQNMVRNNNNNTIDESMPDTAIDSQMDEASGTPDEDML",binding,Skp1 (budding yeast) [1],binds
same,binding,Skp1 (budding yeast) [2],binds
"Cdc53 with deletion of residues 448-748 (MYC-tagged) (protein, not shown: small tags and cut ends) MSETLPRSDDLEATWNFIEPGINQILGNEKNQASTSKRVYKILSPTMYMEVYTAIYNYCVNKSRSSGHFSTDSRTGQSTILVGSEIYEKLKNYLKNYILNFKQSNSETFLQFYVKRWKRFTIGAIFLNHAFDYMNRYWVQKERSDGKRHIFDVNTLCLMTWKEVMFDPSKDVLINELLDQVTLGREGQIIQRSNISTAIKSLVALGIDPQDLKKLNLNVYIQVFEKPFLKKTQEYYTQYTNDYLEKHSVTEYIFEAHEIIKREEKAMTIYWDDHTKKPLSMALNKVLITDHIEKLENEFVVLLDARDIEKITSLYALIRRDFTLIPRMASVFENYVKKTGENEISSLLAMHKHNIMKNENANPKKLALMTAHSLSPKDYIKKLLEVHDIFSKIFNESFPDDIPLAKALDNACGAFININEFALPAGSPKSATSKTSEMLAKYSDILLIFLEACIVRIMKAKRNLPHTTLVNECIAQSHQRFNAKVSMVKRAIDSLIQKGYLQRGDDGESYAYLA",binding,Skp1 (budding yeast) [3],binds
"Gal4^DBD-Cdc53^ΔK (protein, not shown: small tags and cut ends) MSETLPRSDDLEATWNFIEPGINQILGNEKNQASTSKRVYKILSPTMYMEVYTAIYNYCVNKSRSSGHFSTDSRTGQSTILVGSEIYEKLKNYLKNYILNFKQSNSETFLQFYVKRWKRFTIGAIFLNHAFDYMNRYWVQKERSDGKRHIFDVNTLCLMTWKEVMFDPSKDVLINELLDQVTLGREGQIIQRSNISTAIKSLVALGIDPQDLKKLNLNVYIQVFEKPFLKKTQEYYTQYTNDYLEKHSVTEYIFEAHEIIKREEKAMTIYWDDHTKKPLSMALNKVLITDHIEKLENEFVVLLDARDIEKITSLYALIRRDFTLIPRMASVFENYVKKTGENEISSLLAMHKHNIMKNENANPKKLALMTAHSLSPKDYIKKLLEVHDIFSKIFNESFPDDIPLAKALDNACGAFININEFALPAGSPKSATSKTSEMLAKYSDILLKKATKPEVASDMSDEDIITIFKYLTDKDAFETHYRRLFAKRLIHGTSTSAEDEENIIQRLQAANSMEYTGKITKMFQDIRLSKILEDDFAVALKNEPDYSKAKYPDLQPFVLAENMWPFSYQEVEFKLPKELVPFIKFKLIQQVPPGLDALVKPETQFKLSRPYKALKTNINFASGVKNDILQSLSGGGHDNHGNKLGNKRLTEDERIEKELNTERQIFLEACIVRIMKAKRNLPHTTLVNECIAQSHQRFNAKVSMVKRAIDSLIQKGYLQRGDDGESYAYLA",binding,[4],binds
"Cdc34 (enzyme, budding yeast, UniProt P14682 1-295, looked up) MSSRKSTASSLLLRQYRELTDPKKAIPSFHIELEDDSNIFTWNIGVMVLNEDSIYHGGFFKAQMRFPEDFPFSPPQFRFTPAIYHPNVYRDGRLCISILHQSGDPMTDEPDAETWSPVQTVESVLISIVSLLEDPNINSPANVDAAVDYRKNPEQYKQRVKMEVERSKQDIPKGFIMPTSESAYISQSKLDEPESNKDMADNFWYDSDLDDDENGSVILQDDDYDDGNNHIPFEDDDVYNYNDNDDDDERIEFEDDDDDDDDSIDNDSVMDRKQPHKAEDESEDVEDVERVSKKI",binding,[5],binds
